Reference: the supplement of paper PMC4604168 (melanoma cell lines)
This is one part of the list. Single values are uncertain, as repeats are few or missing.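 Imaging used 1,536-well plates; nuclei positive for cleaved PARP by antibody were divided by total DNA-stained nuclei to yield the apoptosis fraction. Doses for screening kept most cells viable, and cell lines differ markedly in resting and induced cleaved-PARP levels.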

Key:
Test in all cases: cleaved PARP positive nuclei fraction relative to DMSO control; melanoma cells; higher = more apoptosis
Details in all cases: library dose: low library concentration; 72 h
[1] = tested on: MZ2-MEL
[2] = tested on: MeWo
[3] = tested on: RPMI7951
[4] = tested on: RVH-421
[5] = tested on: SkMel28
[6] = tested on: SkMel2
[7] = tested on: SkMel30
[8] = tested on: SkMel5
[9] = tested on: UACC257
[10] = tested on: UACC62

Compound	cleaved PARP positive nuclei fraction [1] [%]	cleaved PARP positive nuclei fraction [2] [%]	cleaved PARP positive nuclei fraction [3] [%]	cleaved PARP positive nuclei fraction [4] [%]	cleaved PARP positive nuclei fraction [5] [%]	cleaved PARP positive nuclei fraction [6] [%]	cleaved PARP positive nuclei fraction [7] [%]	cleaved PARP positive nuclei fraction [8] [%]	cleaved PARP positive nuclei fraction [9] [%]	cleaved PARP positive nuclei fraction [10] [%]
Cn1cc(C2=C(c3cn(C4CCN(Cc5ccccn5)CC4)c4ccccc34)C(=O)NC2=O)c2ccccc21 [Enzastaurin] + CCCCCCCCCCCC1=C(O)C(=O)C=C(O)C1=O [Embelin] (first compound 0.8 µM, partner dose 1.2 µM)	129	68	72.5	102	130	184	157	155	84.1	103
N.N.[Cl][Pt][Cl] [cisplatin] + OCCn1cc(-c2cnc3nnn(Cc4ccc5ncccc5c4)c3n2)cn1 [PF04217903] (first compound 1.6 µM, partner dose 1 µM)	121	107	50.3	261	173	71.3	58.7	34.5	89.1	73.3
N.N.[Cl][Pt][Cl] [cisplatin] + CN(NC(=O)CC(=O)NN(C)C(=S)c1ccccc1)C(=S)c1ccccc1 [STA4783] (first compound 1.6 µM, partner dose 0.006 µM)	107	62.9	226	395	119	66.8	66.7	89.5	111	30.9
COc1cc([C@@H]2c3cc4c(cc3[C@@H](O[C@@H]3O[C@@H]5CO[C@@H](C)O[C@H]5[C@H](O)[C@H]3O)[C@H]3COC(=O)[C@H]23)OCO4)cc(OC)c1O [etoposide] + C/C(O)=C(\C#N)C(=O)Nc1cc(Br)ccc1Br [LFM-A13] (first compound 0.02 µM, partner dose 2 µM)	97.5	134	39.4	12.8	239	71.2	25.1	139	250	555
N.N.[Cl][Pt][Cl] [cisplatin] + COc1ccc2c(c1)CCC1C2CCC2(C)C(NCCCCCCN3C(=O)C=CC3=O)CCC12 [U73122] (first compound 1.6 µM, partner dose 0.4 µM)	99.8	100	79.3	76.6	71.5	58.9	28.4	78.3	182	102
NC(=O)c1ccc(N(C(N)=O)c2c(F)cccc2F)nc1-c1ccc(F)cc1F + Cc1cc(SCc2sc(-c3ccc(C(F)(F)F)c(F)c3)nc2C)ccc1OCC(=O)O [GW0742] (first compound 0.4 µM, partner dose 2 µM)	183	192	34.7	141	42.5	60.5	32.7	77.5	137	172
C[C@]1(O)C[C@@H](c2nc(-c3ccc4ccc(-c5ccccc5)nc4c3)c3c(N)nccn32)C1 + O=C(Oc1ccc([N+](=O)[O-])cc1)N1CCC(C(O)(c2ccc3c(c2)OCO3)c2ccc3c(c2)OCO3)CC1 [JZL184] (first compound 0.4 µM, partner dose 1 µM)	144	200	276	27	56.6	59	81.3	86.4	210	180
C[As](C)SC[C@H](NC(=O)CC[C@H](N)C(=O)O)C(=O)NCC(=O)O [Darinaparsin] + NC(=O)Nc1cc(-c2cccc(F)c2)sc1C(=O)N[C@H]1CCCNC1 [AZD7762] (first compound 0.4 µM, partner dose 0.02 µM)	54.4	44	105	57.5	72.1	239	64.8	66.4	49.5	36
O=C(/C=C/c1cccnc1)NCCCCC1CCN(C(=O)c2ccccc2)CC1 + O=C(Oc1ccc([N+](=O)[O-])cc1)N1CCC(C(O)(c2ccc3c(c2)OCO3)c2ccc3c(c2)OCO3)CC1 [JZL184] (first compound 0.01 µM, partner dose 1 µM)	497	253	199	215	58.8	552	93.9	187	99.5	223
CC(C)C[C@H](NC(=O)[C@H](Cc1ccccc1)NC(=O)c1cnccn1)B(O)O [Bortezomib] + O=C(Oc1ccc([N+](=O)[O-])cc1)N1CCC(C(O)(c2ccc3c(c2)OCO3)c2ccc3c(c2)OCO3)CC1 [JZL184] (first compound 0.001 µM, partner dose 1 µM)	118	180	137	157	20.5	40.7	153	92.3	973	144
C[As](C)SC[C@H](NC(=O)CC[C@H](N)C(=O)O)C(=O)NCC(=O)O [Darinaparsin] + C=CCn1c(=O)c2cnc(Nc3ccc(N4CCN(C)CC4)cc3)nc2n1-c1cccc(C(C)(C)O)n1 [MK1775] (first compound 0.4 µM, partner dose 0.02 µM)	93.7	49.1	50	156	299	62	88.7	811	180	132
N.N.[Cl][Pt][Cl] [cisplatin] + CO[C@@H]1[C@H](N(C)C(=O)c2ccccc2)C[C@H]2O[C@]1(C)n1c3ccccc3c3c4c(c5c6ccccc6n2c5c31)C(=O)NC4 [Midostaurin] (first compound 1.6 µM, partner dose 0.08 µM)	83.5	208	101	86.6	91.7	236	58.6	226	87.2	180
CS(=O)(=O)CCNCc1ccc(-c2ccc3ncnc(Nc4ccc(OCc5cccc(F)c5)c(Cl)c4)c3c2)o1 [lapatinib] + O=C(Oc1ccc([N+](=O)[O-])cc1)N1CCC(C(O)(c2ccc3c(c2)OCO3)c2ccc3c(c2)OCO3)CC1 [JZL184] (first compound 0.8 µM, partner dose 1 µM)	105	120	78.4	27	66.9	64.2	48.2	77.1	89	44.1
